Laboratory results as given in PubChem BioAssay AID2685 (National Center for Advancing Translational Sciences (NCATS), 2010).
Some of the results follow. The main result of the screen is listed elsewhere. These columns were measured beside it and carry no call. Compounds called inactive in the main read-out are mostly missing here. The note in brackets gives the kind of curve behind each potency; many fits are weak.

Assay: qHTS Assay for Lipid Storage Modulators in Drosophila S3 Cells;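 as to cell number change: cells counted by Cell Tracker Red CMTPX staining in the red channel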
Settings: BODIPY lipid droplet fluorescence, 18-24 h; for cell number change: measured here: cell count max response, cells fed with added oleic acid
Procedure, shortened: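 Laser-scanning cytometry quantifies lipid droplet accumulation (500–530 nm total intensity; droplet/cell object ratio) in oleic acid-fed (400 uM added) Drosophila S3 cells treated with a concentration series. 20 uM Triacsin C defined 100% inhibition.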

[1] = measured here: cell number channel AC50, cells fed with added oleic acid
[2] = measured here: lipid fluorescence (Fed channel) AC50, cells fed with added oleic acid

SMILES	cell number change	AC50 [1]	AC50 [2]
Cc1cccc(NC(=O)CNc2cc(C)ccc2C)c1	-11.8%		
CNC(=O)CSc1nnc(C2CC2)n1-c1ccccc1	-4.52%		
CCOc1ccc(S(=O)(=O)N(C)c2ccc(OCC(=O)NCc3ccco3)cc2)cc1	122%	14.6 µM [rising, partial curve]	20.6 µM [rising, partial curve]
Cc1ccc(CNC(=O)CSc2ncn[nH]2)cc1	28.7%		
CC12COC3(C(=O)Nc4cccnc4)CC1CCC32C (centres undefined)	2.05%		0.00461 µM [falling, full curve, poor fit]
Cc1ccc2c(Cn3cc(C(F)(F)F)cc(Cl)c3=O)cc(=O)oc2c1	-58.2%		0.092 µM [falling, full curve, poor fit]
Cc1c(C)c2c(OCC(=O)N[C@@H](Cc3ccccc3)C(=O)O)cc3c(c2oc1=O)CCC(C)(C)O3	6.53%		6.51 µM [rising, single point]
Cc1csc2ncc(C(=O)Nc3ccccc3F)c(=O)n12	14.3%	1.3 µM [rising, partial curve]	1.03 µM [rising, full curve]
CC(NC(=O)Cn1nc(-c2ccccc2)c2ccccc2c1=O)c1ccccc1 (centres undefined)	-68%	20.6 µM [falling, partial curve]	18.4 µM [falling, partial curve]
O=C1NC2(CCCc3ccccc32)C(=O)N1Cc1nnc(-c2ccccc2Br)o1 (centres undefined)	-24.7%		9.2 µM [falling, partial curve]
NC(=O)C1CCN(S(=O)(=O)c2ccc3c(c2)OCCO3)CC1	11.3%	0.731 µM [falling, single point]	
COc1ccc(N2CCN(C(=O)CNC(=O)c3ccc(C(C)(C)C)cc3)CC2)cc1	65.8%	16.4 µM [rising, single point]	
Cc1c(C(=O)N2CCOCC2)sc(NC(=O)c2ccc3c(c2)OCO3)c1C#N	-4.96%		
CC(NC(=O)C(C)N1CCN(Cc2ccccc2)CC1)c1ccccc1 (centres undefined)			0.92 µM [falling, full curve, poor fit]
O=C(Nc1cccc(Cl)c1)Nc1nnc(CC2=CCCCC2)s1	-11.8%		16.4 µM [falling, partial curve]
Cc1cc2c3c([nH]c2cc1S(=O)(=O)NCc1ccc(CN2CCCCCC2)o1)CCCC3=O	-5.81%		
CC(C)Cc1cc(C(=O)N2N=C(C(F)F)CC2(O)C(F)F)c2ccccc2n1 (centres undefined)	-21.2%		18.4 µM [falling, single point]
N#CC1(NC(=O)COC(=O)c2cc([N+](=O)[O-])ccc2N2CCOCC2)CCCCC1	39.6%	10.3 µM [rising, partial curve, poor fit]	
CC(/C=N/NC(=O)c1nn(C)c(C)c1Br)=C\c1ccccc1			3.26 µM [rising, partial curve, poor fit]
Cc1noc(C)c1CSc1nc2ccccc2nc1NS(=O)(=O)c1ccc(Cl)cc1	-33.4%	14.6 µM [falling, partial curve]	29.1 µM [falling, single point]
O=C(COc1ccc(Br)cc1)Nc1ccncc1	-41.3%	23.1 µM [falling, single point]	20.6 µM [falling, single point]
CCC(CC)N=C1NS(=O)(=O)c2cc([N+](=O)[O-])ccc21	-12.7%		29.1 µM [falling, single point]
CCCCn1c(/N=C/c2c[nH]c3ccccc23)nc2ccccc21	-46%	29.1 µM [falling, single point]	29.1 µM [falling, single point]
Cc1ccc(C)c(NC(=O)CSc2nc3c(c(=O)n2C)SC(C)C3)c1 (centres undefined)	46.7%	0.058 µM [rising, full curve, poor fit]	0.0731 µM [rising, full curve, poor fit]
CCN(CC(=O)NCc1ccc(Cl)cc1)C(=O)c1cnc(Cl)c(Cl)c1	17.1%		6.51 µM [rising, single point]
O=C(N/N=C/c1coc2ccccc2c1=O)c1cccc([N+](=O)[O-])c1	-27.6%		
C=C[C@@H]1c2ccccc2N(S(=O)(=O)c2ccc(C)cc2)[C@H](c2ccccc2C(F)(F)F)C1(C#N)C#N	11.6%		6.51 µM [rising, single point]
Cc1ccoc1C(=O)Nc1cccc2ccccc12		0.00517 µM [rising, full curve, poor fit]	6.51 µM [rising, partial curve]
Cc1ccc(Nc2nnc(SCC(=O)Nc3cccc(S(=O)(=O)N4CCCCC4)c3)s2)cc1	-5.78%		23.1 µM [falling, single point]
COc1ccc(C(=O)Nc2sc3c(c2C(=O)O)CC(C)(C)OC3)cc1	-22.5%		29.1 µM [rising, partial curve]

Reprinted at random: two compounds from above.
SMILES	cell number change	AC50 [1]	AC50 [2]
Cc1ccc(CNC(=O)CSc2ncn[nH]2)cc1	28.7%		
O=C(Nc1cccc(Cl)c1)Nc1nnc(CC2=CCCCC2)s1	-11.8%		16.4 µM [falling, partial curve]
